This assay is described as follows: qHTS Assay for Lipid Storage Modulators in Drosophila S3 Cells.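 As to cell number change: cells counted by Cell Tracker Red CMTPX staining in the red channel.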 The settings on record: BODIPY lipid droplet fluorescence, 18-24 h; for cell number change: measured here: cell count max response, cells fed with added oleic acid. The procedure, abridged: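 Laser-scanning cytometry quantifies lipid droplet accumulation (500–530 nm total intensity; droplet/cell object ratio) in oleic acid-fed (400 uM added) Drosophila S3 cells treated with a concentration series. 20 uM Triacsin C defined 100% inhibition.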

[1] abbreviates: measured here: cell number channel AC50, cells fed with added oleic acid.
[2] abbreviates: measured here: lipid fluorescence (Fed channel) AC50, cells fed with added oleic acid.

The AC50 is the midpoint of the concentration-response curve, whichever way the signal moves. A higher AC50 goes with activity only at high concentration.

The list shows a part of the results. The main result of the screen is listed elsewhere. These columns were measured beside it and carry no call. Compounds called inactive in the main read-out are mostly missing here. Potencies come from curve fits of mixed quality, noted in brackets.

`CCCCNS(=O)(=O)c1ccc2c(c1)oc(=O)n2CC(=O)OCC`: the cell number change was -18%. For the same compound, the AC50 under setting [1] is 3.26 µM [falling, single point]. Under setting [2], the AC50 was 3.26 µM [falling, single point].

On to `COC(=O)CCCn1nc(NC(=O)c2ccco2)cc1C`, for which the cell number change was determined as 15.7%.

In the case of `CCOc1cccc(N(C(=O)CNC(=O)c2ccco2)C(C(=O)NCC2CCCO2)c2ccccc2)c1` (configuration not stated), the cell number change is -6.41%. The AC50 under setting [1] was 4.11 µM [rising, partial curve, poor fit].

Take `CCc1cc2cc(C)c(C)cc2nc1SCC(=O)NNC(=O)c1ccco1`: the cell number change is -13.5%. Also, the half-maximal activity concentration (AC50) under setting [2] is 2.31 µM [falling, partial curve].

On to `CC(=O)N1CCSc2ccc(S(=O)(=O)NCCc3ccc(C)cc3)cc21`, for which the cell number change worked out at 1.7%.

For `COc1ccc(CCn2nnnc2C(C(C)C)N2CCN(c3ncccn3)CC2)cc1OC` (configuration not stated), the cell number change is -8.41%. Further, the AC50 under setting [2] is 0.0231 µM [rising, single point].

With `Cc1ccc(S(=O)(=O)NCCC(=O)Nc2ccc(Cl)c(Cl)c2)cc1C`, the cell number change is -43%. Moreover, the AC50 under setting [1] is 29.1 µM [falling, single point]. The AC50 under setting [2] is 18.4 µM [falling, single point].

As to `CC1C(=O)Nc2ccccc2N1C(=O)C1CC1` (configuration not stated), the cell number change is -12.5%. Further, under setting [2], the AC50 is 23.1 µM [rising, single point].

Take `CCOc1ccc(Cl)cc1CNCCCSc1ncccn1`: the cell number change was -34.4%. In addition, the AC50 under setting [1] was 8.2 µM [falling, partial curve, poor fit].

Regarding `O=C1CSC(c2ccc(F)cc2)N1c1c(F)cccc1F` (configuration not stated), the cell number change turned out to be 5.79%.

With `CCN1CCc2nc3sc(C(=O)Nc4cccnc4Cl)c(N)c3cc2C1`, the cell number change is -18.3%. Also, under setting [2], the AC50 is 29.1 µM [falling, single point].

For `Cn1cccc1/C=C1\SC(=S)N(Nc2ccccc2)C1=O`, the cell number change came to 19.8%. Further, under setting [2], the concentration at half-maximal activity (AC50) is 0.13 µM [rising, full curve, poor fit].

Consider `CC(=O)Nc1ccc(NC(=O)c2ccccc2CCc2ccccc2)cc1`, for which the cell number change is -32.8%. For the same compound, the concentration at half-maximal activity (AC50) under setting [1] was 0.731 µM [rising, single point]. Also, the concentration at half-maximal activity (AC50) under setting [2] was 29.1 µM [falling, single point].

For the compound `O=C(Nc1c(Cl)ccc2nsnc12)c1cccnc1`, the cell number change came to 1.53%. For the same compound, the AC50 under setting [2] is 0.0206 µM [rising, full curve, poor fit].

With `O=C(NCc1ccccn1)C1CCN(Cc2cnn(-c3ccccc3)c2-n2cccc2)CC1`, under setting [2], the half-maximal activity concentration (AC50) was 0.58 µM [rising, single point].

For `COc1ccccc1Oc1ccc(S(=O)(=O)NCc2ccccn2)cc1`, the AC50 under setting [1] is 0.461 µM [rising, partial curve, poor fit].

`O=C(c1ccccc1)N1CCN(C(=O)c2ccc([N+](=O)[O-])cc2)CC1`: the cell number change turned out to be 0.264%. Further, under setting [2], the AC50 was 1.46 µM [falling, partial curve].

For `CC1CCC(N2CCN(c3ncccn3)CC2)CC1` (configuration not stated), the cell number change is -21.9%. The AC50 under setting [1] was 1.84 µM [falling, partial curve]. Also, under setting [2], the AC50 is 0.184 µM [falling, full curve, poor fit].

In the case of `O=C(CN1CCCc2ccccc21)Nc1cc(S(=O)(=O)N2CCCC2)ccc1Cl`, the cell number change is -10.4%.

Take `O=C(CNC(=O)c1ccco1)Nc1ccc(F)cc1`: the cell number change worked out at 101%.

With `COCCC(=O)N1CCC(Oc2ccc(C(=O)NCc3ncc(C)[nH]3)cc2)CC1`, the cell number change was 3.54%. Also, under setting [2], the AC50 was 5.17 µM [rising, single point].

`CNC(=S)N/N=C1\C(=O)c2cccc3cccc1c23`: the cell number change was -20.9%.

For `O=S(=O)(NCCSc1ccccc1)c1cccs1`, the cell number change was -131%. For the same compound, the AC50 under setting [1] was 25.9 µM [falling, partial curve, poor fit]. The AC50 under setting [2] was 16.4 µM [falling, partial curve].

Regarding `CC(=O)/C=C1/C(=O)Nc2ccccc21`, the cell number change was -20.7%.

In the case of `CCSc1ccccc1C(=O)NCc1ccc(OC)cc1`, the cell number change turned out to be 3.41%. Further, the AC50 under setting [2] was 0.58 µM [rising, single point].

For the compound `O=C(Nn1cnnc1)c1csc2ccccc12`, the cell number change is -3.04%. Also, the concentration at half-maximal activity (AC50) under setting [2] is 0.58 µM [falling, full curve, poor fit].

As to `CCOC(=O)N1CCN(C(=O)C(=O)NNC(=O)COc2ccc(Cl)c(C)c2)CC1`, the cell number change was 1.14%.

As for `N#CC1=C(N)N(c2ccccc2)C(c2ccco2)C1(C#N)C#N` (configuration not stated), the cell number change was determined as 142%. Further, the AC50 under setting [1] is 13 µM [rising, partial curve]. The half-maximal activity concentration (AC50) under setting [2] was 6.51 µM [rising, single point].

As for `COc1ccc(C2=Nn3c(nnc3-c3ccco3)SC2)cc1OC`, the cell number change was -23.2%. Further, the concentration at half-maximal activity (AC50) under setting [2] is 14.6 µM [falling, partial curve].

As for `Cc1ccc(C(=O)CSC2=C(C#N)C(c3ccco3)C3=C(CC(C)(C)CC3=O)N2)cc1` (configuration not stated), the cell number change was -41.1%. Moreover, under setting [1], the AC50 is 25.9 µM [falling, partial curve, poor fit]. Further, under setting [2], the AC50 was 16.4 µM [falling, partial curve, poor fit].

For the compound `COc1ccc(C2=NN(c3nc4ccccc4s3)C(=O)C2)cc1`, the cell number change is -0.691%.

Consider `O=C(CSc1nc2ccsc2c(=O)n1-c1ccccc1)N1CCCC1`, for which the cell number change was determined as 64.2%. For the same compound, the concentration at half-maximal activity (AC50) under setting [1] is 10.3 µM [rising, partial curve, poor fit].

`Cc1c(Cl)cccc1NC(=O)CC(C(=O)O)C1CCCO1` (configuration not stated): the cell number change amounted to 1.39%. In addition, the AC50 under setting [2] was 0.184 µM [rising, full curve, poor fit].

In the case of `CCN(CC1COc2ccccc2O1)C(=S)Nc1ccc(F)cc1` (configuration not stated), the cell number change is -66.7%. Besides, the AC50 under setting [1] is 0.164 µM [falling, partial curve, poor fit]. In addition, the AC50 under setting [2] was 0.0651 µM [rising, full curve].

On to `COc1ccccc1NC(=O)c1oc2ccc(C)cc2c1C`, for which the cell number change was determined as 18%. Moreover, under setting [1], the half-maximal activity concentration (AC50) is 6.51 µM [rising, single point].

As to `COc1ccccc1N(CC(=O)Nc1ccc(F)c(F)c1)S(C)(=O)=O`, the cell number change is -71%. Under setting [1], the AC50 is 32.6 µM [falling, partial curve, poor fit].

As for `O=C(N/N=C/c1ccccc1C(=O)O)c1ccc(COc2cccc3cccnc23)cc1`, the cell number change was 32.3%. The concentration at half-maximal activity (AC50) under setting [1] was 9.2 µM [rising, partial curve].

Regarding `CC1=CSC2=NC(=O)/C(=C\c3cccn3-c3ccccc3)C(=N)N12`, the cell number change was 2.66%. In addition, under setting [2], the concentration at half-maximal activity (AC50) was 1.46 µM [rising, partial curve, poor fit].

Take `O=C(CSc1nc(-c2ccccc2)nc2c1Cc1ccccc1O2)Nc1ccccc1`: the cell number change was 16.3%. Besides, the half-maximal activity concentration (AC50) under setting [2] was 0.0058 µM [rising, full curve, poor fit].

Turning to `CC1CCN(S(=O)(=O)c2ccc3c(c2)c(=O)c(C(=O)NCc2ccccc2Cl)cn3C)CC1`, the cell number change was 3.43%. For the same compound, the AC50 under setting [2] is 14.6 µM [rising, partial curve, poor fit].

The values are drawn from PubChem BioAssay AID2685 (National Center for Advancing Translational Sciences (NCATS), 2010).
